The text below walks through data of doi:10.1101/2025.06.04.657812.

The chains behind the UniProt entries cited, without tags or fusion partners.
UniProt O00716: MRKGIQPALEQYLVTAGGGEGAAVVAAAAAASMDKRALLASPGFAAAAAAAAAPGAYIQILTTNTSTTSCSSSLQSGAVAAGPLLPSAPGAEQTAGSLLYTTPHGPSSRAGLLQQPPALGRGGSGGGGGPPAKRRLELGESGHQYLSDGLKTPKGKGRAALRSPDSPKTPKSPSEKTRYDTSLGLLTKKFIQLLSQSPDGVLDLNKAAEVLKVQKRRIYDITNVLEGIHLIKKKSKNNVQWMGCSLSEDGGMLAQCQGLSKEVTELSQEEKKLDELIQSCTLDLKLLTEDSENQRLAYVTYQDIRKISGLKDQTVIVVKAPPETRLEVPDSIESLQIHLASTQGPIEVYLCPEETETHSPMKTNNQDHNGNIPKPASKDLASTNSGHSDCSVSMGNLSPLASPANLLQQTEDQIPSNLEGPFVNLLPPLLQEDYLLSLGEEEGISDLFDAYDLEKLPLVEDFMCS
UniProt Q9BXW9: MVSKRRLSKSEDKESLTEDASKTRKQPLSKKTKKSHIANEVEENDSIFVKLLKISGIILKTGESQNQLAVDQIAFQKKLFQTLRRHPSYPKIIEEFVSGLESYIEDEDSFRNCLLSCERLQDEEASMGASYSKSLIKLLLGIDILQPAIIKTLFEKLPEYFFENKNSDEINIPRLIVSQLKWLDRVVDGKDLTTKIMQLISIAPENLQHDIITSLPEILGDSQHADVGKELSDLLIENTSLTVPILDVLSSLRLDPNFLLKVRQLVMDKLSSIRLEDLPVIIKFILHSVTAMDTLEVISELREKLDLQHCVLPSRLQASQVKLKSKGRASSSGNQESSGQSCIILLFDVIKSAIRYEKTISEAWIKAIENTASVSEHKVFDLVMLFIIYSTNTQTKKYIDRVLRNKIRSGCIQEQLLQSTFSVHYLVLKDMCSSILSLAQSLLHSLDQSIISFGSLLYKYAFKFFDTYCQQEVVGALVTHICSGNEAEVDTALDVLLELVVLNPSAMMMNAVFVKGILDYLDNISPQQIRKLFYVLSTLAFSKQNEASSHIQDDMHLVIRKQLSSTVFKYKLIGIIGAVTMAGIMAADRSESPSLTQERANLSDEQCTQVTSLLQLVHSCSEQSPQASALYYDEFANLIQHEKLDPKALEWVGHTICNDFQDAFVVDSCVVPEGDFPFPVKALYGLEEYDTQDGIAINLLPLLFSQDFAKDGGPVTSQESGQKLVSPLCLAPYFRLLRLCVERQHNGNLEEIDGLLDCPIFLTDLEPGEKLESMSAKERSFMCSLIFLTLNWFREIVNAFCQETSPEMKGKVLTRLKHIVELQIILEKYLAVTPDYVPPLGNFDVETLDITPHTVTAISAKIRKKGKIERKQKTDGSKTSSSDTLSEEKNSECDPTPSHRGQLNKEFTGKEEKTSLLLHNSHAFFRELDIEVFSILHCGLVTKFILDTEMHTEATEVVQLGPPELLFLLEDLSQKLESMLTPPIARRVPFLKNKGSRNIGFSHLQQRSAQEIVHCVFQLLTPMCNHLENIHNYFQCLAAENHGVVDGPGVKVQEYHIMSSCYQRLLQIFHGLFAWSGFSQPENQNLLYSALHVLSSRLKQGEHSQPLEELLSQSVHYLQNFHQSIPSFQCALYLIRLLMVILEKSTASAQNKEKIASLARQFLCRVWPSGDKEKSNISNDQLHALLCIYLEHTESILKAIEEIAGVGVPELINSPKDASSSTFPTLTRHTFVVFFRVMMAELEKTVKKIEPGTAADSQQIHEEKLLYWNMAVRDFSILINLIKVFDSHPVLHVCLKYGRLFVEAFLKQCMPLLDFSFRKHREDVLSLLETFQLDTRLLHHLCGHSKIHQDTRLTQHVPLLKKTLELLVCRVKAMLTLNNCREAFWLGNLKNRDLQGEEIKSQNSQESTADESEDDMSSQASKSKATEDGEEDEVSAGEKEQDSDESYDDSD
UniProt P01106: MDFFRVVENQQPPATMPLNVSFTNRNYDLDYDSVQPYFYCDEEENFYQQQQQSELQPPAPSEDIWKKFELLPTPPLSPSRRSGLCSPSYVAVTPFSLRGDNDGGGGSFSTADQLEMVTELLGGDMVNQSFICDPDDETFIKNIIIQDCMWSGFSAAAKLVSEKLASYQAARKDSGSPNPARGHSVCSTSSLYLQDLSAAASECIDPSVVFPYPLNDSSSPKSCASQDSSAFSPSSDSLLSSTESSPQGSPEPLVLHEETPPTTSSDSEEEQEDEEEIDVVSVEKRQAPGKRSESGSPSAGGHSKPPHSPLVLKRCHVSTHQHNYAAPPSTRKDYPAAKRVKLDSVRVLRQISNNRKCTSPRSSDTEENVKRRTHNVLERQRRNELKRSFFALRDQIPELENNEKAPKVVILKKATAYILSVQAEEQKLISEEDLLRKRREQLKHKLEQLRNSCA
UniProt P15927: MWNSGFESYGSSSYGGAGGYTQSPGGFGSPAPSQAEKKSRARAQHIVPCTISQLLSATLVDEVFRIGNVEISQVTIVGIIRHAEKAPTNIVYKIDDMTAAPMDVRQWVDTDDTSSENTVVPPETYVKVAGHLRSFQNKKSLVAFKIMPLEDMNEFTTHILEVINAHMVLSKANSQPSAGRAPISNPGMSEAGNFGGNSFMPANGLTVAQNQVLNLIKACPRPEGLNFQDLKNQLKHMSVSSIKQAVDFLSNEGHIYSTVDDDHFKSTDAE

For assay [1], the target named is T1, Lymphoid Specific Helicase (LSH) (human (endogenous in PC3)) (UniProt Q9NRZ9).
T1 sequence: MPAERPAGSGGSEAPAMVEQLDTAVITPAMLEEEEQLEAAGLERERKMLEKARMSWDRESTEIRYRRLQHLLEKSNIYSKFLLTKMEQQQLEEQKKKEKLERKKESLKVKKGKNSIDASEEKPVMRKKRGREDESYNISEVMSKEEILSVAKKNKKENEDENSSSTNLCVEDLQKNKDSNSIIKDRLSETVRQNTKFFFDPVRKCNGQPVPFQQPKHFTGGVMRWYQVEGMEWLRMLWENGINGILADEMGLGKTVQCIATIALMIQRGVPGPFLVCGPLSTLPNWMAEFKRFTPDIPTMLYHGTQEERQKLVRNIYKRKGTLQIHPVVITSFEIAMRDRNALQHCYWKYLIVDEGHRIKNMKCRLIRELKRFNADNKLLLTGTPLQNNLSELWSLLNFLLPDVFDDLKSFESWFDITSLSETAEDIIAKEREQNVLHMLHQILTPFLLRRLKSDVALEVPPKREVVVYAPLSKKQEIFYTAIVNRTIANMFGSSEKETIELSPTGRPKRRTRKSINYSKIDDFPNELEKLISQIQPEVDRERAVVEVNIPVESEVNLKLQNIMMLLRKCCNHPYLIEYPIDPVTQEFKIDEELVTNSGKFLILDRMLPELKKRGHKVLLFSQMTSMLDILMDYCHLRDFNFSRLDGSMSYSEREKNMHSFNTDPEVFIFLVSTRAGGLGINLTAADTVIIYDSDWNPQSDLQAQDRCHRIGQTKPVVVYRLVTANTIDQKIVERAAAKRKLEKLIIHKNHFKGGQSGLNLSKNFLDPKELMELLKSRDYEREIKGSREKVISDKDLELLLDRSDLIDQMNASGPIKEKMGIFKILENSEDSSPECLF
As to the kind of experiment: co-IP.

In assay [2] the target is T1, Lymphoid Specific Helicase (LSH) (human (endogenous in PC3)). Description: proximity ligation.

Results are given in words; binding and its absence hold for the method and conditions named. Binding seen in cells or lysates may run through a third protein. Some entries that bind do so weakly or less than the wild type.

For E2F3 (from UniProt O00716 1-465), the binding entry in assay [1] is listed as “binds”.
On to FANCD2 (from UniProt Q9BXW9 1-1451), for which the binding entry in assay [2] is “binds”.
MYC (from UniProt P01106 1-454): the binding result in assay [1] was “binds”.
In the case of “RPA phosphorylated at Ser4/8 (RPA32-S4/8P) (from UniProt P15927 1-270)”, the binding result in assay [2] was “binds”.
